Reference: PubChem BioAssay AID1259308 (NCATS, 2017)
In all, the deposit lists about 59,000 reagents; shown is a random part of them. About 1,510 of them (2.6%) were called active. 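Calls use total luciferase alone and ignore viability, so some active siRNAs may act by altering cell number.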 Unmarked entries are inactive. The numbers tell different reagents against one gene apart. Further read-outs or replicates are left out here.

- Aim: 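Knock-downs that increase output of a recombinant reporter protein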 (primary screen)
- System: human HEK293 embryonic kidney cells stably expressing firefly luciferase (HEK-CMV-Luc2-Hygro)
- Knock-down reagent: single siRNA against human genes, 0.8 pmol siRNA per well
- Timing: 72 h
- Measurement: 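Reporter luminescence and viable-cell signal on separate replicate plates, given as percent of non-targeting control and median/MAD z-scores, plus per-cell luciferase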
- Scale: total luciferase, z-score and total luciferase, % of control: higher = more reporter protein produced; luciferase per cell, z-score: higher = more reporter output per viable cell
- Rule for the call: 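An siRNA counts as active if its total luciferase robust z-score exceeds 3; genes with two or more such siRNAs out of three were retested with fresh siRNAs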
- Calls: active = raised luciferase; inactive = no rise

| Gene | reagent no. | total luciferase, z-score | total luciferase, % of control | luciferase per cell, z-score |
| --- | --- | --- | --- | --- |
| EMP1 | 1 | -1.03 | 61.4 | -0.743 |
| EMP1 | 2 | 0.603 | 93.9 | 0.417 |
| EMP1 | 3 | -0.56 | 70.8 | -0.301 |
| CLPX | 1 | -0.731 | 67.3 | -0.514 |
| CLPX | 2 | -0.185 | 78.2 | -0.0992 |
| CLPX | 3 | -0.809 | 65.8 | -0.686 |
| MTFR1 | 1 | -0.279 | 76.3 | -0.383 |
| MTFR1 | 2 | -1.23 | 57.4 | -1.19 |
| MTFR1 | 3 | -0.354 | 74.8 | -0.178 |
| NXPE1 | 1 | 1.18 | 105 | 0.886 |
| NXPE1 | 2 | -1.14 | 59.3 | -0.446 |
| NXPE1 | 3 | 3.37 (active) | 149 | 4.05 |
| KRTAP12-3 | 1 | 2.11 | 124 | 1.39 |
| KRTAP12-3 | 2 | -0.348 | 75 | -0.752 |
| KRTAP12-3 | 3 | 0.185 | 85.6 | 0.337 |
| DUSP18 | 1 | 0.609 | 94 | 1.12 |
| DUSP18 | 2 | 2.54 | 132 | 1.52 |
| DUSP18 | 3 | -1.32 | 55.6 | -0.13 |
| STOX1 | 1 | 0.459 | 91 | 0.413 |
| STOX1 | 2 | -0.0737 | 80.4 | 0.0586 |
| STOX1 | 3 | -0.158 | 78.7 | 0.0255 |
| JAKMIP2 | 1 | 2.91 | 140 | 3.39 |
| JAKMIP2 | 2 | 0.652 | 94.9 | 0.6 |
| JAKMIP2 | 3 | 1.6 | 114 | 1.21 |
| SLCO1A2 | 1 | -0.25 | 76.9 | -0.486 |
| SLCO1A2 | 2 | -0.212 | 77.7 | -0.0219 |
| SLCO1A2 | 3 | 0.801 | 97.8 | 0.221 |
| TBC1D30 | 1 | -1.02 | 61.7 | -0.566 |
| TBC1D30 | 2 | 1.35 | 109 | 2.78 |
| TBC1D30 | 3 | 1.64 | 114 | 1.62 |
| PAQR7 | 1 | 3.75 (active) | 157 | 3.8 |
| PAQR7 | 2 | 1.51 | 112 | 2.12 |
| PAQR7 | 3 | 1.36 | 109 | 1 |

8 of these entries in another layout:
Gene	reagent no.	total luciferase, z-score	total luciferase, % of control	luciferase per cell, z-score
EMP1	1	-1.03	61.4	-0.743
EMP1	2	0.603	93.9	0.417
EMP1	3	-0.56	70.8	-0.301
CLPX	1	-0.731	67.3	-0.514
CLPX	2	-0.185	78.2	-0.0992
CLPX	3	-0.809	65.8	-0.686
MTFR1	1	-0.279	76.3	-0.383
MTFR1	2	-1.23	57.4	-1.19

The results go on.
| Gene | reagent no. | total luciferase, z-score | total luciferase, % of control | luciferase per cell, z-score |
| --- | --- | --- | --- | --- |
| TNNI2 | 1 | 0.327 | 88.4 | 0.0853 |
| TNNI2 | 2 | 0.758 | 97 | 1.06 |
| TNNI2 | 3 | -1.34 | 55.2 | -1.39 |
| SPATS2L | 1 | -1.28 | 56.4 | -2.02 |
| SPATS2L | 2 | 3.33 (active) | 148 | 2.56 |
| SPATS2L | 3 | -0.753 | 66.9 | -1.09 |
| SLIT2 | 1 | -0.904 | 63.9 | -1.27 |
| SLIT2 | 2 | 0.00152 | 81.9 | -0.415 |
| SLIT2 | 3 | -1.9 | 44.2 | -2.47 |
| ZNF595 | 1 | 0.89 | 99.6 | 0.368 |
| ZNF595 | 2 | 1.18 | 105 | 0.842 |
| ZNF595 | 3 | 0.0602 | 83.1 | -0.41 |
| POLH | 1 | 0.352 | 88.9 | 0.846 |
| POLH | 2 | -0.29 | 76.1 | -0.924 |
| POLH | 3 | -0.115 | 79.6 | -0.668 |
| PKIA | 1 | 2.15 | 125 | 1.22 |
| PKIA | 2 | 2.64 | 134 | 2.08 |
| PKIA | 3 | -0.589 | 70.2 | -0.961 |
| ZKSCAN2 | 1 | -0.0227 | 81.4 | -0.402 |
| ZKSCAN2 | 2 | 0.0707 | 83.3 | -0.133 |
| ZKSCAN2 | 3 | 1.07 | 103 | 0.232 |
| ALPL | 1 | -0.13 | 79.3 | 0.279 |
| ALPL | 2 | -0.461 | 72.7 | 0.0555 |
| ALPL | 3 | 0.701 | 95.8 | 0.318 |
